log2 fold change data for nine targets are collected here from the supplement of paper PMC12819154, “High-throughput peptide-centric local stability assay extends protein–ligand identification to membrane proteins, tissues and bacteria” (Nature Structural & Molecular Biology, 2025).

The chains behind the UniProt entries cited, without tags or fusion partners. Where a name states a change or a piece, a line headed by the entry shows the natural chain unless it says otherwise.
UniProt Q86SQ9: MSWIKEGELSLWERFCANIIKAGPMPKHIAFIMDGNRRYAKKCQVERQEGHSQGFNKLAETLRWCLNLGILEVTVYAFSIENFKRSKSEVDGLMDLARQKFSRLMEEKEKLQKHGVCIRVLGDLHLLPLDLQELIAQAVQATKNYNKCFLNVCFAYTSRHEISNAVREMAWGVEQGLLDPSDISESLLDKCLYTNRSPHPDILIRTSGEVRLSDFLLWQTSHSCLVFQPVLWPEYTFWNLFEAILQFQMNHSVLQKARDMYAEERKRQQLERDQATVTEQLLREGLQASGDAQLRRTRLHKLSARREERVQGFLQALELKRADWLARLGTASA
UniProt Q86UP3: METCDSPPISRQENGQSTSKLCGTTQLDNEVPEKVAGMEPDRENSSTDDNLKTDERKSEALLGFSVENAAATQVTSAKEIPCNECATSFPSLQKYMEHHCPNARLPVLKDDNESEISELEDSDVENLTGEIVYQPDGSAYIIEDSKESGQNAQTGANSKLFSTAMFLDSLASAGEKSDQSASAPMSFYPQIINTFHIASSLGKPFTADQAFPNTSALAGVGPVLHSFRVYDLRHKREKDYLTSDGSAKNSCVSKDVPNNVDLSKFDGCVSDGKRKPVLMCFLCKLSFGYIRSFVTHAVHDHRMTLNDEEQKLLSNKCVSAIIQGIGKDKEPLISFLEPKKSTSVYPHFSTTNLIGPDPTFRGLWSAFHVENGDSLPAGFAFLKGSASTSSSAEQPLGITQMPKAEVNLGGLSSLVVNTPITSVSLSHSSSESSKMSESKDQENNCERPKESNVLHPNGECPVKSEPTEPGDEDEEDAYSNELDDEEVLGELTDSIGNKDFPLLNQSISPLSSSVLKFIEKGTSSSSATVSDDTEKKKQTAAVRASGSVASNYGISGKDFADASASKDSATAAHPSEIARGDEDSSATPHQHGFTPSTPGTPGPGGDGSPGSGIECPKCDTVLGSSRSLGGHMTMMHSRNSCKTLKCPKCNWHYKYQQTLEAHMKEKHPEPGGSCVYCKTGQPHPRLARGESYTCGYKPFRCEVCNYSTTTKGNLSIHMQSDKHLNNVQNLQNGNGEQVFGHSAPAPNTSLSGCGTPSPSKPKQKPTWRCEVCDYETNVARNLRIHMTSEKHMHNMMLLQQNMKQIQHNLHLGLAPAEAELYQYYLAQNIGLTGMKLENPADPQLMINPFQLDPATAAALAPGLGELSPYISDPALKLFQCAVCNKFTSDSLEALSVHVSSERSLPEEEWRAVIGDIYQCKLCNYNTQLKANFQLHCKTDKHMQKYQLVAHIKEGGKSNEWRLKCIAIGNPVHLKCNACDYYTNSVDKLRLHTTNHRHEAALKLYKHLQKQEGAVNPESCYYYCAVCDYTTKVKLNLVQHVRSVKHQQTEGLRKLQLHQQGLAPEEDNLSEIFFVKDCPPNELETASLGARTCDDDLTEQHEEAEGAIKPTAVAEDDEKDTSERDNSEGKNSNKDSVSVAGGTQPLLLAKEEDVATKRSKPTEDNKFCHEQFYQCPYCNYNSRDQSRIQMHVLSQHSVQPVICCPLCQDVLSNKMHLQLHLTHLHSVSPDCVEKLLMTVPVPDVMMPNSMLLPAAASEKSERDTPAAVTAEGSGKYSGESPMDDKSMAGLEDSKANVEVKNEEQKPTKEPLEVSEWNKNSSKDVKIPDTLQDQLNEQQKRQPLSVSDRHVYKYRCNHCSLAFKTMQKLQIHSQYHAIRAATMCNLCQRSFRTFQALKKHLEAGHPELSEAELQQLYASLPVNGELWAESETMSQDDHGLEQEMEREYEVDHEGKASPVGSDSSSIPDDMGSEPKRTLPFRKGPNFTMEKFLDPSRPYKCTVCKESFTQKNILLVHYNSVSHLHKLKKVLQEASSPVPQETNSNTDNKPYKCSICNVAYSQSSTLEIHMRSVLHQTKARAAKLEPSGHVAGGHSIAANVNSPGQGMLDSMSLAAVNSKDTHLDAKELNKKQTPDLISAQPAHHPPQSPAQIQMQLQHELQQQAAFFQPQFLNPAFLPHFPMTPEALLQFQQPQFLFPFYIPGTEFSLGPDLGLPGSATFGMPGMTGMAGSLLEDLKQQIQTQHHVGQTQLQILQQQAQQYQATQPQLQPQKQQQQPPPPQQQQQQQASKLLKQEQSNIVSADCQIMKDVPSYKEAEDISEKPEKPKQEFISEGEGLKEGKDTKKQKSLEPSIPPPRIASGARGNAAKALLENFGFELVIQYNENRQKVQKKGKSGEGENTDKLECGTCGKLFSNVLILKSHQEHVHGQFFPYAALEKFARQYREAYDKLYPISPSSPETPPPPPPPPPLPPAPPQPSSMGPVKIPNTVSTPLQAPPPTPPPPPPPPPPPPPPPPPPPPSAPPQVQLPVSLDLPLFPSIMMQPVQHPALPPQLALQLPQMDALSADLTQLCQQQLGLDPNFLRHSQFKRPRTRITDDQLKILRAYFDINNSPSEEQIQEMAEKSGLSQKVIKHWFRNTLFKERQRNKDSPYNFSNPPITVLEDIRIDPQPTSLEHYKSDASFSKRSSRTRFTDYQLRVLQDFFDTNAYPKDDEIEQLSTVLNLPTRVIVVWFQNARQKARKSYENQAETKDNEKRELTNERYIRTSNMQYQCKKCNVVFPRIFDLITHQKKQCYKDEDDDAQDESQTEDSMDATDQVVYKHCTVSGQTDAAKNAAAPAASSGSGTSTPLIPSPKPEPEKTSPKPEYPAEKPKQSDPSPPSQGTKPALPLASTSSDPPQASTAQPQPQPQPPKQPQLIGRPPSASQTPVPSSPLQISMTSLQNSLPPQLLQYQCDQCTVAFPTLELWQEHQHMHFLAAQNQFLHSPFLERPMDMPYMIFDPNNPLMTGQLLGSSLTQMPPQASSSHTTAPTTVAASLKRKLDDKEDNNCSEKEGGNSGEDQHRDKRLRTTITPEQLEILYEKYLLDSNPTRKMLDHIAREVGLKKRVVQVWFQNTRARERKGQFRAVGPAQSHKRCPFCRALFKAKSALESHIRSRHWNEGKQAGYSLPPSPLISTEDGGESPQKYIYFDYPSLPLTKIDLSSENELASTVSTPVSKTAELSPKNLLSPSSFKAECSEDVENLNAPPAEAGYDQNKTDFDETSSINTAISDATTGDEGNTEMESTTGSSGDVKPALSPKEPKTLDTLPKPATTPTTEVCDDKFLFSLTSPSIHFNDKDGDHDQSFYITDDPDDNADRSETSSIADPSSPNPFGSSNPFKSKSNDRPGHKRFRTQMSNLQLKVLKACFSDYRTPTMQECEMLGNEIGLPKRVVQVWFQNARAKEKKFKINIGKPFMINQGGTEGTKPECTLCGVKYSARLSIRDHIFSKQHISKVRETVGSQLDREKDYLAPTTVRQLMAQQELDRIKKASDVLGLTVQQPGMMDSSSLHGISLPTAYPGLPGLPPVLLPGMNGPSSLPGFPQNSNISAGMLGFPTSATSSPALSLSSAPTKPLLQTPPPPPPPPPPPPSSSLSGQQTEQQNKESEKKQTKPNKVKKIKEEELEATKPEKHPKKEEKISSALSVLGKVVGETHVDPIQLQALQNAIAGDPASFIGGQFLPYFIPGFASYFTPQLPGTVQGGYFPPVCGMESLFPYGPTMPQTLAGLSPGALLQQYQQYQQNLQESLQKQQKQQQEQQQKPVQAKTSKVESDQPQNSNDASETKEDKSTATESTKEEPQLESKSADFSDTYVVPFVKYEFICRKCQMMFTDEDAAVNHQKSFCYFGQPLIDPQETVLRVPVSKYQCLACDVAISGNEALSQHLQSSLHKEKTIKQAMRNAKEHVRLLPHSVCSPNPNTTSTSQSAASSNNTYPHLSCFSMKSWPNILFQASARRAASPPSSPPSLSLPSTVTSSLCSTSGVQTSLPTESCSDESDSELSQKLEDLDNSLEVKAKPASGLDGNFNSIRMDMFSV
UniProt Q7Z589: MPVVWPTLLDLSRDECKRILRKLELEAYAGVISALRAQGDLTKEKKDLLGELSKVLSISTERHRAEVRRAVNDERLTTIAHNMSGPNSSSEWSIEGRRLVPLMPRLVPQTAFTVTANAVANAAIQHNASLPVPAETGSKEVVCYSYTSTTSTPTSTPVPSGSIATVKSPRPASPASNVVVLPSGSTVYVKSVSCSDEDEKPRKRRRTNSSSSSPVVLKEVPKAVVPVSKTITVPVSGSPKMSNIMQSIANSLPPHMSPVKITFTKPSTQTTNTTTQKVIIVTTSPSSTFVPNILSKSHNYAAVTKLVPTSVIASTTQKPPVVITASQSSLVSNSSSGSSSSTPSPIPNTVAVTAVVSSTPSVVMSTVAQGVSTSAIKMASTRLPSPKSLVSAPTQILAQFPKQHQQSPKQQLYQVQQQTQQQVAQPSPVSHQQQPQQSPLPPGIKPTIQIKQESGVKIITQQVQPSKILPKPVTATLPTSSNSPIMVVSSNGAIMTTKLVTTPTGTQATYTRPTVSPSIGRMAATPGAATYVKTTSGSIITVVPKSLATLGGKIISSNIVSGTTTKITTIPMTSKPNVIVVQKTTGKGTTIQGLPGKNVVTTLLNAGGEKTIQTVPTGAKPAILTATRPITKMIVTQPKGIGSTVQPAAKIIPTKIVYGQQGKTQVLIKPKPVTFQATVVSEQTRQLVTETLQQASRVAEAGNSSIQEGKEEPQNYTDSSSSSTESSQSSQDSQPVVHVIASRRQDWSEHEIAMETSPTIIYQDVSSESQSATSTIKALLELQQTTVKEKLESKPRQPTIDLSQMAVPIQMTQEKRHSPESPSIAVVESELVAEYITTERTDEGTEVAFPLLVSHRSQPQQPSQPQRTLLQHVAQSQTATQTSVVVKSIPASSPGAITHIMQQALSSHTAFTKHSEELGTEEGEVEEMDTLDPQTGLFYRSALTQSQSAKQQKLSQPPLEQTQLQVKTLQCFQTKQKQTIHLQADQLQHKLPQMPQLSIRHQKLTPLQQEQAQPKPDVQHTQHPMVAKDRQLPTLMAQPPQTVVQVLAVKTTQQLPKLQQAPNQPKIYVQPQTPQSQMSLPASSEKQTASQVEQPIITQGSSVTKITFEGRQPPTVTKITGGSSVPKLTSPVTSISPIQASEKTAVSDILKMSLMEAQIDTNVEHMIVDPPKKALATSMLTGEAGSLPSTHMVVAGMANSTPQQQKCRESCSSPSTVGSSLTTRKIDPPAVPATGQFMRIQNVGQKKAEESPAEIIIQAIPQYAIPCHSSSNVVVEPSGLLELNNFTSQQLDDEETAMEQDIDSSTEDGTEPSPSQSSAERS
UniProt Q86U90: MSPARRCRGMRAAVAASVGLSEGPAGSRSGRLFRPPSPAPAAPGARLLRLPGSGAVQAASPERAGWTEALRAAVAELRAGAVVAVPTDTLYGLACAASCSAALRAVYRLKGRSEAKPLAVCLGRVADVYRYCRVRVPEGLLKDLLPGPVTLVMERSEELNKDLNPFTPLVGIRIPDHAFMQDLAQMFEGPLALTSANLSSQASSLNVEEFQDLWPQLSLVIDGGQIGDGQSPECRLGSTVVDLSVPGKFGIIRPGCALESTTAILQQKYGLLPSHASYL
UniProt Q6VY07, whole entry, looked up: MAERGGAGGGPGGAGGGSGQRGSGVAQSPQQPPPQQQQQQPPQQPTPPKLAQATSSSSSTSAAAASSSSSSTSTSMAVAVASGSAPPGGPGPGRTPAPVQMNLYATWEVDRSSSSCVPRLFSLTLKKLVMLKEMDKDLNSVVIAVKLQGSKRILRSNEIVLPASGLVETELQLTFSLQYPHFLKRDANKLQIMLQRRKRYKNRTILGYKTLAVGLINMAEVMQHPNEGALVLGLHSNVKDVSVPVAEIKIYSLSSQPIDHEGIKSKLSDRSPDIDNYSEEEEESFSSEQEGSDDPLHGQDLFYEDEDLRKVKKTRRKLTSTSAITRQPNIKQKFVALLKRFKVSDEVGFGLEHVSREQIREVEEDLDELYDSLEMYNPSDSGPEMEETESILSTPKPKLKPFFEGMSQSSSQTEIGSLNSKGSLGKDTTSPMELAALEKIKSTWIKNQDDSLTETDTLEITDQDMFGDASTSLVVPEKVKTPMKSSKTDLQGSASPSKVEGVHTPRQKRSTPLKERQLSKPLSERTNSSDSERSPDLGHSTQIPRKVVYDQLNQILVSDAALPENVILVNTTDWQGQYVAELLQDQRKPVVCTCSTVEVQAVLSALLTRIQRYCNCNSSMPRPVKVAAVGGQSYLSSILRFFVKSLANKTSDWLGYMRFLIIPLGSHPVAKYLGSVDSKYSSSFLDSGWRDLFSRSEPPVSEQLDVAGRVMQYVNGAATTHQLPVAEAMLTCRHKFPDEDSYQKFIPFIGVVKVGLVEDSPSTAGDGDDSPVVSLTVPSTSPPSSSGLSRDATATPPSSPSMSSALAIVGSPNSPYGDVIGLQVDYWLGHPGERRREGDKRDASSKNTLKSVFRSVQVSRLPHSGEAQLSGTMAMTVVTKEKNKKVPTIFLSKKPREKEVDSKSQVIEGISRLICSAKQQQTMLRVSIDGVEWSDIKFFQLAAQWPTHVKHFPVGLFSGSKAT

This is one part of the list. Small differences around the control level are noise.

Compound in this test: Cc1nc(Nc2ncc(C(=O)Nc3c(C)cccc3Cl)s2)cc(N2CCN(CCO)CC2)n1 [dasatinib]
Kind of test: log2 fold change of tryptic peptide abundance, ligand vs vehicle (limited proteolysis) (log2 ratio); higher = more trypsin-susceptible (destabilized). The following applies: ligand concentration: 5 uM; sample: K562 cleared lysate.
On to “DHDDS (peptide sequence: DQATVTEQLLR, peptide start residue: 273) (UniProt Q86SQ9)”, for which the log2 fold change was -0.32.

Regarding “HUWE1 (peptide sequence: RSSLLTEK, peptide start residue: 3445) (UniProt Q7Z6Z7)”, the log2 fold change was -0.346.

As to “PHLDB1 (peptide sequence: NSITEISDNEDDLLEYHRR, peptide start residue: 577) (UniProt Q86UU1)”, the log2 fold change is 0.672.

As for “GPRIN1 (peptide sequence: KVDPVSSDKVDPVFPR, peptide start residue: 240) (UniProt Q7Z2K8)”, the log2 fold change was determined as 0.17.

For “ZFHX4 (peptide sequence: QQQEQQQKPVQAK, peptide start residue: 3287) (UniProt Q86UP3)”, the log2 fold change is -0.31.

In the case of “ANKRD13D (peptide sequence: EQEERER, peptide start residue: 579) (UniProt Q6ZTN6)”, the log2 fold change is -0.511.

For the target “EMSY (peptide sequence: CRESCSSPSTVGSSLTTR, peptide start residue: 1207) (UniProt Q7Z589)”, the log2 fold change amounted to 0.882.

Regarding “YRDC (peptide sequence: LLRLPGSGAVQAASPER, peptide start residue: 47) (UniProt Q86U90)”, the log2 fold change was -0.0703.

As for “PACS1 (peptide sequence: GGAGGGPGGAGGGSGQR, peptide start residue: 5) (UniProt Q6VY07)”, the log2 fold change was -0.152.
